PubChem BioAssay AID332 (DTP/NCI, 2004)
The list is a part of this screen's results and no random one: it gathers tests that were run many times, whatever their T/C, doses with no T/C, and many T/C values between a quarter and a half above the control. Further doses and runs are listed elsewhere. T/C is the treated group as % of the vehicle group. Schedules are NCI's codes, read here as Q, the interval in days (D) or hours (H), X, the number of doses. Some doses were run more than once; their values stand side by side, smallest first. Some structures stand for samples that the source files as different forms (salt, stereo form or complex); doses refer to the form tested. Some T/C values carry the count of animals alive at the toxicity check (mostly the fifth day); where none is given, no animal had died by that day. Some doses have a count of surviving animals in place of a T/C: the source holds a T/C of zero for them, seemingly a mark for toxic or unscored doses. Survivors were counted at the toxicity check, usually on the fifth day, unless a day is given; later deaths do not show. Marks such as (2×) say how often a value occurs here.

System: mice, ADJ-PC-20 plasma cell tumor sc, T/C %
Assay: NCI In Vivo Anticancer Drug Screen. Data for tumor model ADJ-PC-20 Plasma Cell (subcutaneous) in unknown mice
Conditions: T/C endpoint: mean tumor weight, higher T/C = larger tumour
Method: The antitumor activity of compounds was measured in mice bearing transplantable tumors. Survival or tumor size were measured and the results are expressed as the measurement made in the treated group (T) divided by the measurement made in the vehicle treated control group (C). The tumor model used in this assay is ADJ-PC-20 Plasma Cell (subcutaneous) in unknown mice

[1] = dose: 25.0 mg/kg/injection, schedule: Q01DX010 (ip), vehicle: saline, evaluated on day 21
[2] = dose: 100.0 mg/kg/injection, schedule: Q01DX010 (ip), vehicle: saline
[3] = dose: 200.0 mg/kg/injection, schedule: Q01DX010 (ip), vehicle: saline
[4] = dose: 200.0 mg/kg/injection, schedule: Q01DX010 (ip), vehicle: carboxymethylcellulose (CMC)
[5] = dose: 20.0 mg/kg/injection, schedule: Q01DX010 (ip), vehicle: carboxymethylcellulose (CMC)
[6] = dose: 5.0 mg/kg/injection, schedule: Q01DX010 (ip), vehicle: carboxymethylcellulose (CMC)
[7] = dose: 500.0 mg/kg/injection, schedule: Q01DX010 (sc), vehicle: steroid suspending solution

O=P1(N(CCCl)CCCl)NCCCO1 (configuration not stated)
T/C (dose: 12.5 mg/kg/injection, schedule: Q01DX010 (ip), vehicle: saline, evaluated on day 20): 37 % of control [9 of 10 alive]
T/C (dose: 12.5 mg/kg/injection, schedule: Q01DX010 (ip), vehicle: saline, evaluated on day 21): 8, 25, 47 % of control
T/C (dose: 25.0 mg/kg/injection, schedule: Q01DX010 (ip), vehicle: saline, evaluated on day 20): 15 % of control
T/C [1]: 3 [5 of 6 alive] and 5 % of control
survivor count (dose: 40.0 mg/kg/injection, schedule: Q01DX010 (ip), vehicle: saline): 0 of 10
survivor count (dose: 50.0 mg/kg/injection, schedule: Q01DX010 (ip), vehicle: saline): 5 of 10
survivor count [2]: 0 of 10 and 0 of 6 (2×)
survivor count [3]: 0 of 6

C[C@@H]1C[C@H]2CC[C@H](O2)[C@H](C)C(=O)O[C@@H](C)C[C@@H]2CC[C@@H](O2)[C@@H](C)C(=O)O[C@H](C)C[C@H]2CC[C@H](O2)[C@H](C)C(=O)O[C@@H](C)C[C@@H]2CC[C@@H](O2)[C@@H](C)C(=O)O1
survivor count (dose: 400.0 mg/kg/injection, schedule: Q01DX010 (ip), vehicle: carboxymethylcellulose (CMC)): 4 of 10

O=c1[nH]c(=O)n(C2CC(O)C(CO)O2)cc1F (configuration not stated)
survivor count [4]: 0 of 10

N[C@@H](Cc1ccc(N(CCCl)CCCl)cc1)C(=O)O
survivor count (dose: 0.88 mg/kg/injection, schedule: Q01DX010 (ip), vehicle: saline): 0 of 6
survivor count (dose: 4.7 mg/kg/injection, schedule: Q01DX010 (ip), vehicle: saline): 0 of 6
survivor count (dose: 7.0 mg/kg/injection, schedule: Q01DX010 (ip), vehicle: saline): 0 of 6
survivor count (dose: 14.0 mg/kg/injection, schedule: Q01DX010 (ip), vehicle: saline): 0 of 6

CN(N=O)C(=O)NC(C=O)C(O)C(O)C(O)CO (configuration not stated)
T/C [1]: 133 % of control
survivor count [2]: 0 of 10
survivor count [3]: 0 of 10

CC(=O)N(C)C
survivor count (dose: 2000.0 mg/kg/injection, schedule: Q01DX010 (ip), vehicle: saline): 3 of 10

NC(Cc1ccc(N(CCCl)CCCl)cc1)C(=O)O (configuration not stated)
T/C (dose: 0.31 mg/kg/injection, schedule: Q01DX010 (ip), vehicle: carboxymethylcellulose (CMC), evaluated on day 21): 125 % of control
survivor count (dose: 1.6 mg/kg/injection, schedule: Q01DX010 (ip), vehicle: saline): 0 of 10
survivor count (dose: 10.0 mg/kg/injection, schedule: Q01DX010 (ip), vehicle: carboxymethylcellulose (CMC)): 0 of 10
survivor count (dose: 12.5 mg/kg/injection, schedule: Q01DX010 (ip), vehicle: saline): 0 of 10
survivor count [5]: 0 of 10

Clc1ccc(C(c2ccccc2Cl)C(Cl)Cl)cc1 (configuration not stated)
T/C (dose: 100.0 mg/kg/injection, schedule: Q01DX010 (sc), vehicle: steroid suspending solution, evaluated on day 21): 138 % of control

N#[N+]c1cnc([O-])[nH]c1=O
survivor count [5]: 0 of 10
survivor count (dose: 40.0 mg/kg/injection, schedule: Q01DX010 (ip), vehicle: carboxymethylcellulose (CMC)): 0 of 10

Nc1nc(=S)c2ncn(C3OC(CO)C(O)C3O)c2[nH]1 (configuration not stated)
survivor count [6]: 0 of 10

CN(C)c1nc(N(C)C)nc(N(C)C)n1
T/C (dose: 125.0 mg/kg/injection, schedule: Q01DX010 (ip), vehicle: carboxymethylcellulose (CMC), evaluated on day 21): 131 % of control

O=c1[nH]c(=O)n(C2CC(O)C(CO)O2)cc1I (configuration not stated)
survivor count (dose: 500.0 mg/kg/injection, schedule: Q01DX010 (ip), vehicle: carboxymethylcellulose (CMC)): 4 of 10
survivor count (dose: 1000.0 mg/kg/injection, schedule: Q01DX010 (ip), vehicle: carboxymethylcellulose (CMC)): 4 of 10

CC[C@H](c1ccc(O)cc1)[C@@H](CC)c1ccc(O)cc1
survivor count (dose: 62.5 mg/kg/injection, schedule: Q01DX010 (sc), vehicle: steroid suspending solution): 4 of 10
T/C (dose: 250.0 mg/kg/injection, schedule: Q01DX010 (sc), vehicle: steroid suspending solution, evaluated on day 21): 137 % of control
survivor count (dose: 250.0 mg/kg/injection, schedule: Q01DX010 (sc), vehicle: steroid suspending solution): 6 of 10
survivor count [7]: 6 of 10

COC12C(COC(N)=O)C3=C(C(=O)C(C)=C(N)C3=O)N1CC1C2N1C (configuration not stated)
survivor count [6]: 2 of 10

Nc1nc(SCc2ccccc2)c2[nH]cnc2n1
T/C (dose: 0.6 mg/kg/injection, schedule: Q01DX010 (ip), vehicle: carboxymethylcellulose (CMC), evaluated on day 21): 140 % of control
survivor count (dose: 18.75 mg/kg/injection, schedule: Q01DX010 (ip), vehicle: carboxymethylcellulose (CMC)): 0 of 10
survivor count (dose: 37.5 mg/kg/injection, schedule: Q01DX010 (ip), vehicle: carboxymethylcellulose (CMC)): 0 of 10

C[N+](C)(C)c1ncnc2nc[nH]c12
survivor count [4]: 0 of 10

O=C1C(NC(=O)C2CCCCC2)=C(N2CC2)C(=O)C(NC(=O)C2CCCCC2)=C1N1CC1
T/C (dose: 18.8 mg/kg/injection, schedule: Q01DX010 (ip), vehicle: carboxymethylcellulose (CMC), evaluated on day 21): 126 % of control [7 of 10 alive]
survivor count (dose: 150.0 mg/kg/injection, schedule: Q01DX010 (ip), vehicle: carboxymethylcellulose (CMC)): 2 of 10

C[C@]12CC[C@H](OC3OC(CO)C(O)C(O)C3O)C[C@H]1CC[C@@H]1[C@@H]2CC[C@]2(C)[C@@H](C3=CCOC3=O)CC[C@]12O (some centres not stated)
survivor count (dose: 1.0 mg/kg/injection, schedule: Q01DX010 (ip), vehicle: saline): 0 of 10
survivor count (dose: 2.0 mg/kg/injection, schedule: Q01DX010 (ip), vehicle: saline): 0 of 10
survivor count (dose: 4.0 mg/kg/injection, schedule: Q01DX010 (ip), vehicle: saline): 0 of 10
survivor count (dose: 8.0 mg/kg/injection, schedule: Q01DX010 (ip), vehicle: saline): 0 of 10
survivor count (dose: 500.0 micrograms/kg/injection, schedule: Q01DX010 (ip), vehicle: saline): 3 of 10

O[C@H](CN1CC1)[C@@H](O)CN1CC1
survivor count (dose: 1.0 mg/kg/injection, schedule: Q01DX010 (ip), vehicle: carboxymethylcellulose (CMC)): 0 of 10
survivor count (dose: 2.0 mg/kg/injection, schedule: Q01DX010 (ip), vehicle: carboxymethylcellulose (CMC)): 0 of 10

[I][Hg][CH2]C1COC([CH2][Hg][I])CO1 (configuration not stated)
survivor count (dose: 60.0 mg/kg/injection, schedule: Q01DX010 (ip), vehicle: carboxymethylcellulose (CMC)): 0 of 10
survivor count (dose: 120.0 mg/kg/injection, schedule: Q01DX010 (ip), vehicle: carboxymethylcellulose (CMC)): 0 of 10

CCCCn1cnc2c(=S)nc[nH]c21
survivor count [4]: 0 of 10

S=P(N1CCOCC1)(N1CC1)N1CC1
T/C (dose: 3.1 mg/kg/injection, schedule: Q01DX010 (ip), vehicle: carboxymethylcellulose (CMC), evaluated on day 21): 136 % of control
survivor count (dose: 25.0 mg/kg/injection, schedule: Q01DX010 (ip), vehicle: carboxymethylcellulose (CMC)): 0 of 10

C[C@]12C=CC(=O)C=C1CC[C@@H]1[C@@H]2C(=O)C[C@@]2(C)[C@H]1CC[C@]2(O)C(=O)CO
survivor count (dose: 100.0 mg/kg/injection, schedule: Q01DX010 (sc), vehicle: steroid suspending solution): 5 of 10
survivor count (dose: 200.0 mg/kg/injection, schedule: Q01DX010 (sc), vehicle: steroid suspending solution): 0 of 6

COC1=C(N)C(=O)c2nc(-c3nc(C(=O)O)c(C)c(-c4ccc(OC)c(OC)c4O)c3N)ccc2C1=O
survivor count (dose: 0.68 mg/kg/injection, schedule: Q01DX010 (ip), vehicle: other): 0 of 6

C[C@]12CCC(=O)C=C1CC[C@@H]1[C@@H]2C(=O)C[C@@]2(C)[C@H]1CC[C@]2(O)C(=O)CO
survivor count [7]: 0 of 10
